## Percent effect of library compounds

The values are deposited in ChEMBL (CHEMBL3988442, “University of Dundee, Small-Polar-MMV Screening Library” (2021)).

The filed quantity is “Percent Effect” (%).
How 0% and 100% were set is not recorded. Most values in the screen are low, and negative values occur.
The compounds are a random part of those screened.
Two or more numbers in one place are separate tests of the same structure; such repeats can differ widely.

Mtb cholesterol medium: 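Phenotypic screen: M. tuberculosis growth, cholesterol and DPPC medium, 4 days; the read-out is not stated. Tested at 50 µM. Direction is inferred from retests: higher values go with more growth inhibition. Of about 69,000 compounds tested this way, about 370 (0.54%) reached 50% or more in at least one test.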
Mtb glucose medium: 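Phenotypic screen: M. tuberculosis growth, glucose 7H9 medium, 3 days; the read-out is not stated. Compounds at 50 µM. The record gives no direction; compounds that gave an IC50 in retests scored well above the rest, so higher reads as more growth inhibition. About 69,000 compounds were tested under these conditions; 1.1% (about 760) showed 50% or more at least once.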

| Compound | Mtb cholesterol medium | Mtb glucose medium |
|---|---|---|
| `CN(C)Cc1ccnc(C2CCCN2Cc2ccc(F)cn2)n1` (stereo unspecified) | -30.54 | 0.82 |
| `Cc1cnn(C2CN(CCOc3ccccc3C#N)C2)c1` | 5.648 | 22.69 |
| `CCOCC1CN(C(=O)c2cccs2)Cc2cnn(CC3CC3)c21` (stereo unspecified) | -7.142 | -15.42 |
| `Fc1cnc(N2CCC3(CC2)CN(Cc2cccs2)CCO3)nc1.O=C(O)C(F)(F)F.O=C(O)C(F)(F)F` | 19.84 | 39.33 |
| `CC(C)(C)c1nccc(N2CCCCC2CCNS(C)(=O)=O)n1` (stereo unspecified) | 24.46 | 16.46 |
| `CCN(CC)c1ccc(NS(=O)(=O)c2cccnc2)cn1` | -1.227 and -0.3332 | -6.738 |
| `c1ccc(CCN2CCN(c3ncnc4[nH]ccc34)CC2)cc1` | -16.57 | 11.14 |
| `O=C(COc1ccccc1)N1C[C@@H](O)[C@H](N2CCCC2)C1.O=CO` | -6.754 | 11.88 |
| `N#Cc1c(CN2CCCCC2Cn2cncn2)cn2ccccc12` (stereo unspecified) | -39.07 | -9.275 and -27.17 |
| `Cn1cc(C2CCCN2C(=O)CCn2c(=O)oc3ccccc32)cn1` (stereo unspecified) | 0.005618 | -22.72 |
| `[H][C@]12CCN(C(=O)COC)CC[C@@]1([H])S(=O)(=O)N(Cc1cccnc1)C2` | -10.89 | 1.613 |
| `CC(=O)N(C)CCc1nc(-c2cc(C(N)=O)co2)cs1` | 7.685 | 17.92 |
| `O=C(c1cscn1)N1CCC2(CC1)CCN(S(=O)(=O)c1ccccc1)C2` | 12.8 and -8.247 | 5.201 and -1.232 |
| `COC1CN(C(=O)CC2CCCC2)CCC(=O)N(C)c2ccccc21` (stereo unspecified) | -13.64 | -15.59 |
| `O=C(C1CCC1)N1CCN(c2snc3ccccc23)CC1` | -5.16 | -7.382 |
| `O=C(O)C(F)(F)F.O=C(O)C(F)(F)F.O=C(O)c1c(-c2cccnc2)ncc2c1CCN(Cc1cccnc1)C2` | -7.634 | -3.966 |
| `O=S(=O)(NCCN1CCCCC1Cn1cncn1)c1ccccc1` (stereo unspecified) | -13.53 | 18.96 |
| `O=C(O)C(F)(F)F.[H][C@@]12CCC(=O)N(CCOC)[C@]1([H])CCN2Cc1cccc(C#N)c1` | 9.484 and 12.89 | 7.21 |
| `CCCn1nc(C)c(-c2cncn2CC2(N(C)C)CCC(C)CC2)c1C` (stereo unspecified) | -27.66 | -10.35 |
| `O=c1c2cccnc2cnn1CC(O)c1cccc(Cl)c1` (stereo unspecified) | -22.05 | -8.128 |
| `Cc1ccc(C(O)CN2CCN(Cc3nccn3C)CC2)cc1C` (stereo unspecified) | 2.157 | -18.33 |
| `O=C(O)C(F)(F)F.c1cnc(N2CCC3(CCN(CC4CCOC4)CC3)C2)nc1` (stereo unspecified) | -8.412 | -16.51 |
| `Cc1cc(C(=O)NCCN2CCCCCC2)nn1C(C)(C)C` | 2.368 | 24.17 |
| `Cc1cc(CCCC(=O)NC2CCN(C)C2=O)c(C)s1` (stereo unspecified) | -3.616 | 25.07 and 6.719 |
| `COC(=O)C(O)C1CCN(CCc2ccccn2)CC1` (stereo unspecified) | 0.6862 | 1.009 and -4.87 |
| `COCCc1noc(CN2CCOC(CN(C)C)C2)n1` (stereo unspecified) | -17.01 | -29.86 and -5.519 |
| `COc1ccc(-c2nc(C3CCNCC3)cc3c2ncn3C)cc1.Cl.Cl` | -21.86 | -22.86 |
| `CCNC(=O)NC(=O)CN1CCCC1c1nc(C2CCCCC2)co1` (stereo unspecified) | 17.81 | 23.67 |
| `Cc1cc(C)nc(Nc2nccnc2C2CCCN(CCO)C2)n1` (stereo unspecified) | 4.194 and -0.3662 | -11.66 |
| `[H][C@]12CNC[C@@]1(C(=O)N(C)Cc1cnc(NC)nc1)CN(C1CCCC1)C2` | 9.428 | -0.5115 and 9.097 |
| `CC(C)(C)c1noc(-c2nc3c([nH]2)CCCNC3=O)n1` | -2.664 | 9.148 |
| `[H][C@@]12CCN(Cc3ccoc3)C[C@]1([H])O[C@H](C(=O)NCC1CC1)C2` | -7.087 | 2.516 |
| `COCCNC(=O)c1cc(OC)c2ccoc2c1` | 17.03 | 21.97 |
| `CCc1ccsc1C(=O)N1CCCN(Cc2cscn2)CC1` | -12.99 | -20.61 |
| `Cc1cc(C)n(C2CN(CC(=O)N3CCOCC3)C2)n1` | -9.818 | -20.59 |
| `CN(Cc1ccccc1NCc1cscn1)C(=O)c1cccs1` | -2.318 | 11.08 |
| `CCc1nccn1C1CCCN(C(=O)C2=NN(C)C(=O)CC2)C1` (stereo unspecified) | -23.97 | 1.225 |
| `Cc1ccccc1C(=O)N1CCC2(CCC(C(=O)NCC3CC3)O2)CC1` (stereo unspecified) | -7.924 and -0.4378 | 0.4665 |
| `c1cnc(N2CCC(OCC3CCCCO3)CC2)nc1` (stereo unspecified) | -6.8 | -19.95 |
| `O=C(c1cnco1)N1C[C@@H](O)[C@H](Oc2cccc(F)c2)C1` | -5.692 | -12.73 |
| `O=C(NCC1CCS(=O)(=O)C1)c1ccc(NC(=O)c2ccco2)cc1` (stereo unspecified) | -21.24 and -5.482 | -1.66 |
| `CCC(c1ccc(F)cc1)N1CCn2c(CO)nnc2C1` (stereo unspecified) | 18.4 | 31.43 and -1.354 |